Structures were worked out from names or drawings and are uncertain.
How the values were obtained:
[1] = system: Spleen; test: Expression level of luciferase mRNA delivered by tail vein injection in tissues, IVIS imaging; conditions: luciferase mRNA LNP, tail vein injection 0.5 mg/kg, 6 h after administration; comparative compound 1 taken as a unit 1
Method: (§1) Lipid nanoparticle compositions in which a luciferase-expressing mRNA (luciferase, GenBank: MN728548.1) was encapsulated (prepared according to the preparation method in Example 5) were administered to female Balb/c mice aged 6-8 weeks by tail vein injection at a dose of 0.5 mg/kg. Six hours after administration, the luciferase substrate (D-luciferin potassium salt, Cat. No. abs42075819) was injected intraperitoneally into each mouse. The mice were dissected, their livers and spleens were collected and photographed using an IVIS small-animal optical in vivo imaging system (PerkinElmer), and the fluorescence intensity of each tissue was measured. For the lipid nanoparticle composition corresponding to each compound, at least 3 biological replicates were set, and the mean fluorescence intensity was calculated. The fluorescence intensity indicates the level of luciferase protein expression. The relative fluorescence intensities, i.e., relative protein expression levels, of compounds 1, 2, and 3 and comparative compounds 1 and 3 were calculated with the fluorescence intensity of the lipid nanoparticle composition corresponding to comparative compound 1 taken as a unit 1. For example, the ratio of the tissue fluorescence intensity of compound 1 to the tissue fluorescence intensity of comparative compound 1 is the relative protein expression level of compound 1. […]

[2] = system: Liver; test: as above; conditions: luciferase mRNA LNP, tail vein injection 0.5 mg/kg, 6 h after administration; comparative compound 1 taken as a unit 1
Method: as §1

[3] = Size and polydispersity index of lipid nanoparticles by dynamic light scattering (Malvern Zetasizer Pro); conditions: lipid nanoparticle composition (lipid:DSPC:cholesterol:DMG-PEG 50:10:38.5:1.5) encapsulating luciferase mRNA
Method: (§2) Compounds 1, 2, and 3 and comparative compounds 1, 2, and 3 were each dissolved in an ethanol solution, and each of the resulting solutions was mixed with solutions of DSPC, cholesterol, and DMG-PEG in ethanol in a molar percent (mol %) ratio of 50:10:38.5:1.5 to prepare an ethanol lipid solution. mRNA (luciferase, GenBank: MN728548.1) was dissolved in a 50 mM acetic acid buffer (pH 5) to prepare an aqueous mRNA solution (0.2 mg/mL). Each of the ethanol lipid solutions was mixed with the aqueous mRNA solution by microfluidics, with the volume ratio of the ethanol phase to the aqueous phase being 1:3 and the weight ratio of total lipids to mRNA being about 20:1, to prepare liposomes. Ethanol was removed by dialysis against a 20 mM Tris solution (pH 7.5). Finally, each solution was exchanged into a 20 mM Tris, 8% sucrose solution, and the resulting solutions were cryopreserved to obtain lipid nanoparticle compositions in which mRNA was encapsulated.
The size and polydispersity index (PDI) of the lipid nanoparticles were determined using a Malvern Zetasizer Pro in a 173° backscatter detection mode and dynamic light scattering.

[4] = Liposome encapsulation efficiency, Quant-iT RiboGreen RNA assay kit; conditions: lipid nanoparticle composition encapsulating luciferase mRNA
Method: as §2
The liposome encapsulation efficiency was determined using a Quant-iT RiboGreen RNA assay kit.

[5] = system: A549 cells (human non-small cell lung cancer cells); test: Non-immune cell in vitro transfection efficiency (luciferase mRNA LNP, fluorescence intensity)
Method: (§3) Non-immune cells such as A549 cells (human non-small cell lung cancer cells) and immune cells such as Jurkat cells (human T cells) (from ATCC) were cultured in 96-well plates, respectively. The lipid nanoparticle compositions in which the luciferase mRNA (luciferase, GenBank: MN728548.1) was encapsulated were added to the cell well plates. After 24 h of incubation, the luciferase substrate (D-luciferin potassium salt, Cat. No. abs42075819) was added, and the fluorescence intensity was measured using a microplate reader. The fluorescence intensity indicates the level of luciferase protein expression, i.e., the delivery efficiency of the lipid nanoparticles corresponding to the compounds on different cells.

[6] = system: Jurkat cells (human T cells); test: Immune cell in vitro transfection efficiency (luciferase mRNA LNP, fluorescence intensity)
Method: as §3

CCCCCCCCC(CCCCCCCC)OC(=O)CCCCCCCN(CCCCCOCC(=O)OC(CCCCCCCC)CCCCCCCC)CCCn1ccnc1
Relative protein expression level Spleen [1]: 1.4 | Relative protein expression level Liver [2]: 0.6 | PDI [3]: 0.17 | Size (nm) [3]: 84.2 nm | Encapsulation efficiency (%) [4]: 98.8% | Mean fluorescence intensity (p/s) ([5]; LNP composition with luciferase mRNA, 24 h of incubation): 9.92E+03 p/s | Relative fluorescence intensity ([5]; comparative compound 2 taken as a unit 1): 0.48 | Fluorescence intensity relative to that of the lipid nanoparticle composition corresponding to comparative compound 2 ([6]; immune cells): 6 times | Mean fluorescence intensity (p/s) ([6]; immune cells (Jurkat), LNP composition with luciferase mRNA, 24 h of incubation): 1.79E+04 p/s | Relative fluorescence intensity ([6]; immune cells (Jurkat), comparative compound 2 taken as a unit 1): 6.43

— patent EP4825843A1, “IMIDAZOLE LIPID AND USE THEREOF” (dated 2026)
